Results on 94 sequences are retold here after the supplement of paper PMC3334620.

Whole data set: some 33,000 sequences, median “E-score (-0.5 to 0.5)” near -8e-05, cut for the highest 2% near 0.23. The list shows a part of the results.

The target of this assay is T1, Nrg2 (UniProt P38082).
T1 sequence: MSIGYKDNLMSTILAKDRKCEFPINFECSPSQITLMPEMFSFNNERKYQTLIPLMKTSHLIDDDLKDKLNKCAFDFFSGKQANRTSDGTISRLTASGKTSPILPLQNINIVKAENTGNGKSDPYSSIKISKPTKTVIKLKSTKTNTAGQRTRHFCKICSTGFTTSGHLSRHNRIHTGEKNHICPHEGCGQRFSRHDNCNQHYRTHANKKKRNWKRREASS
The experiment in a line: PBM E-score (8-mer binding enrichment) (E-score (-0.5 to 0.5)); higher = stronger / more preferred TF binding. To be noted: protein concentration: 100 nM; construct: GST-full length. The method in brief:
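Yeast transcription factors, full-length or as DNA-binding domains, were expressed with a GST tag using PURExpress in vitro transcription/translation. At about 100-200 nM they were applied to universal all-10-mer Agilent arrays, double-stranded by primer extension on fresh or once-stripped slides. Fluorescent anti-GST detected bound protein, and masliner normalised the scans. E-scores for ungapped eight-base words, pooled with reverse complements, came from the Universal PBM Analysis Suite.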
As to TCCAAACA, the “PBM E-score” value was -0.079.

In the case of CTTTTACC, the “PBM E-score” value was found to be 0.0111.

In the case of CTCTGGCA, the “PBM E-score” value is -0.0135.

Regarding CTGTTGTC, the “PBM E-score” value amounted to 0.0877.

TAAGATAA: the “PBM E-score” value stood at 0.00597.

Take TTCTTCAA: the “PBM E-score” value is -0.037.

For AATCAGCC, the “PBM E-score” value was -0.165.

Turning to ACAGGGTC, the “PBM E-score” value amounted to 0.402.

As for AGGGTACA, the “PBM E-score” value was determined as 0.181.

As for ATCTTGAA, the “PBM E-score” value was determined as 0.0333.

Take GTTTATGA: the “PBM E-score” value stood at 0.00539.

With CGTCTTAA, the “PBM E-score” value was -0.0213.

On to ACGGTAGT, for which the “PBM E-score” value is -0.203.

As to AAGGTGTC, the “PBM E-score” value is -0.0243.

GCCCACAC: the “PBM E-score” value was determined as 0.114.

On to CGCAGGAG, for which the “PBM E-score” value was -0.0171.

Take AATAGGGG: the “PBM E-score” value is 0.189.

On to AAACGCTG, for which the “PBM E-score” value is -0.211.

For the sequence ATTAGGGA, the “PBM E-score” value was -0.0191.

With CTATGCTC, the “PBM E-score” value was -0.0692.

Turning to CTTCCTTC, the “PBM E-score” value was -0.13.

For CATACTTC, the “PBM E-score” value was -0.148.

As for AGAAAGAT, the “PBM E-score” value worked out at 0.106.

For the sequence GTAACCAC, the “PBM E-score” value is -0.21.

For TGCGGCAA, the “PBM E-score” value is -0.0076.

With GCTGGCTA, the “PBM E-score” value is -0.142.

Consider ATATGTAG, for which the “PBM E-score” value came to 0.00142.

On to AAAACACG, for which the “PBM E-score” value worked out at 0.0805.

Regarding CCAGCGGG, the “PBM E-score” value was -0.0833.

For ATGCAGAA, the “PBM E-score” value came out at 0.151.

For GCAGTAAA, the “PBM E-score” value is -0.0439.

Turning to AGTTTTCC, the “PBM E-score” value is 0.178.

Turning to AGCTTAAC, the “PBM E-score” value is -0.0699.

In the case of CCTTCTAA, the “PBM E-score” value is -0.126.

In the case of ATATCATG, the “PBM E-score” value is 0.0241.

For the sequence CGAATACA, the “PBM E-score” value worked out at 0.0068.

With CATGAATG, the “PBM E-score” value was 0.135.

With ATTATTAC, the “PBM E-score” value was 0.101.

For the sequence CCTAGGGC, the “PBM E-score” value is -0.136.

On to ATGTGCAG, for which the “PBM E-score” value is -0.0713.

Turning to TGACAACA, the “PBM E-score” value came out at 0.058.

Consider ACTAGGCC, for which the “PBM E-score” value is -0.192.

As for AGAGGTGG, the “PBM E-score” value was -0.0295.

On to AGTAAAGG, for which the “PBM E-score” value turned out to be 0.12.

Regarding GAGCAGAC, the “PBM E-score” value was -0.093.

Take CACGCGAG: the “PBM E-score” value worked out at 0.225.

For CACATGCC, the “PBM E-score” value is -0.0123.

Turning to CTTGGGGA, the “PBM E-score” value turned out to be 0.187.

In the case of ACTCGCAT, the “PBM E-score” value is 0.139.

Turning to GTTAGATA, the “PBM E-score” value came out at 0.14.

Turning to CCGTAAGG, the “PBM E-score” value is -0.361.

With ACTGAATG, the “PBM E-score” value is 0.122.

Regarding CGCCTACG, the “PBM E-score” value is -0.117.

For the sequence GGAACCTA, the “PBM E-score” value was -0.06.

With ATGAACGA, the “PBM E-score” value turned out to be 0.0704.

With ATTAGGCG, the “PBM E-score” value is 0.0626.

Take AATAATCT: the “PBM E-score” value was found to be 0.21.

TGACCAAA: the “PBM E-score” value is -0.0504.

As for CCCTAGGG, the “PBM E-score” value is 0.0519.

As to ATGACATC, the “PBM E-score” value was 0.188.

Regarding CACCTCAA, the “PBM E-score” value was 0.13.

On to AAAGACCA, for which the “PBM E-score” value is -0.138.

With TTCAGGAA, the “PBM E-score” value was -0.129.

Take CTTGCCAA: the “PBM E-score” value is 0.00852.

Consider CAGCTCCC, for which the “PBM E-score” value is -0.328.

For the sequence GGTGACGA, the “PBM E-score” value was -0.084.

As for GAACCTCC, the “PBM E-score” value is -0.246.

For the sequence ATTAAACA, the “PBM E-score” value was 0.0199.

As to AATATCTA, the “PBM E-score” value is -0.0725.

On to CATCGATA, for which the “PBM E-score” value is 0.109.

Regarding ACACCCCC, the “PBM E-score” value was -0.386.

As for CGCCGACG, the “PBM E-score” value is -0.136.

As for CAGCTTCC, the “PBM E-score” value is -0.0666.

With GGCGCCAC, the “PBM E-score” value is -0.0207.

In the case of GTGGGAAC, the “PBM E-score” value is -0.0658.

CATCGGGC: the “PBM E-score” value is -0.0546.

For the sequence AAAGTAAG, the “PBM E-score” value was -0.116.

For the sequence TGGATACA, the “PBM E-score” value is 0.0219.

As to CTAAACAC, the “PBM E-score” value is -0.0264.

In the case of GGCGGACC, the “PBM E-score” value was determined as 0.00587.

As to CCCGTTGA, the “PBM E-score” value is -0.125.

In the case of GCCAGCAA, the “PBM E-score” value came out at 0.00326.

In the case of ACGACTAA, the “PBM E-score” value is -0.0548.

Regarding CAAGGCCA, the “PBM E-score” value stood at 0.0591.

On to CGTGAGGC, for which the “PBM E-score” value was -0.184.

For the sequence CACCTCAG, the “PBM E-score” value is -0.11.

Take AGGGATCG: the “PBM E-score” value is -0.0308.

For the sequence CAGATTGC, the “PBM E-score” value amounted to 0.0918.

Turning to ACCGCCCT, the “PBM E-score” value was -0.141.

For ACGACTAT, the “PBM E-score” value is 0.0778.

Consider CTCATCCC, for which the “PBM E-score” value was -0.234.

For GGCGGGAA, the “PBM E-score” value was -0.11.

For the sequence GCCAACTA, the “PBM E-score” value was -0.022.

On to ATTTAGTC, for which the “PBM E-score” value was 0.0158.
